Assay results taken from article PMC6199744, “Development of Chemical Proteomics for the Folateome and Analysis of the Kinetoplastid Folateome” (ACS Infectious Diseases, 2018).
This continues a long series; more values of the same kind are listed elsewhere.

Test system: L. major lysate proteins
Assay: Multitargeted bead mixture chemoproteomics, single concentration competition, proteome-wide
Format: binding
Settings: for fold change: vehicle control = 1

## CCCCCCOc1cccc(Cc2cnc(N)nc2N)c1 [compound 2]
Protein LMJF.11.1160 PROTEIN TRANSPORT PROTEIN SEC31, PUTATIVE
  fold change: 1.1
Protein LMJF.12.0030 […]-1 SUBUNIT, PUTATIVE
  fold change: 1.07
Protein LMJF.12.0530 GLUCOSE-6-PHOSPHATE ISOMERASE
  fold change: 1.64
Protein LMJF.12.0670 […] OXIDASE SUBUNIT IV
  fold change: 1.08
Protein LMJF.13.0570 40S RIBOSOMAL PROTEIN S12, PUTATIVE
  fold change: 1.22
Protein LMJF.13.1190 ADENYL[…], PUTATIVE
  fold change: 1.05
Protein LMJF.13.1660 CHAPERONIN TCP20, PUTATIVE
  fold change: 1.06
Protein LMJF.14.0190 HY[…], CONSERVED
  fold change vs vehicle control: 1.14
Protein LMJF.14.0460 CYS[…]-LYASE-LIKE PROTEIN
  fold change: 1.06
Protein LMJF.14.0680 FATTY ACID ELONGASE, PUTATIVE
  fold change: 1.25
Protein LMJF.14.1160 ENOLASE
  fold change: 1.15
Protein LMJF.14.1440 HY[…], CONSERVED
  fold change: 1.01
Protein LMJF.15.0190 HYPOTHETICAL PROTEIN, CONSERVED
  fold change: 0.97
Protein LMJF.15.1160 TR[…]
  fold change: 1.16
Protein LMJF.15.1380 NUCLEOLAR RNA BINDING PROTEIN, PUTATIVE
  fold change vs vehicle control: 1.29
Protein LMJF.16.0760 TRANSALDOLASE, PUTATIVE
  fold change: 1.31
Protein LMJF.16.0940 DYNEIN LIGHT CHAIN, PUTATIVE
  fold change: 1.07
Protein LMJF.17.0081 […] 1-ALPHA
  fold change: 1.16
Protein LMJF.17.0980 HY[…], CONSERVED
  fold change: 1.04
Protein LMJF.18.0210 HYPOTHETICAL PROTEIN, CONSERVED
  fold change: 1.36
Protein LMJF.18.0580 PEROXISOMAL ENOYL-COA HYDRATASE, PUTATIVE
  fold change: 0.98
Protein LMJF.18.0680 CITRATE SYNTHASE, PUTATIVE
  fold change: 1.24
Protein LMJF.18.0740 […] TU, PUTATIVE
  fold change: 1.02
Protein LMJF.18.1010 DYNEIN LIGHT CHAIN 2B, CYTOPLASMIC, PUTATIVE
  fold change: 0.93
Protein LMJF.18.1210 PROLYL-TRNA SYNTHETASE, PUTATIVE,BI[…]-TRNA SYNTHETASE, PUTATIVE
  fold change vs vehicle control: 1.05
Protein LMJF.18.1380 PYRUVATE DEHYDROGENASE E1 COMPONENT ALPHA SUBUNIT, PUTATIVE
  fold change: 0.85
Protein LMJF.19.0100 FIBRILLARIN, PUTATIVE
  fold change: 0.86
Protein LMJF.19.0710 […] DEHYDROGENASE
  fold change vs vehicle control: 1.44
Protein LMJF.19.0750 HYPOTHETICAL PROTEIN, CONSERVED
  fold change: 0.89
Protein LMJF.19.0995 4-COUMARATE:COA LIGASE-LIKE PROTEIN
  fold change: 1.34
Protein LMJF.19.1010 HY[…], CONSERVED
  fold change: 1.11
Protein LMJF.19.1420 CYSTEINE PEPTIDASE A (CPA)
  fold change: 0.98
Protein LMJF.19.1560 INOSINE-5'-MONOPHOSPHATE DEHYDROGENASE
  fold change: 1.01
Protein LMJF.19.1620 POTASSIUM VOLTAGE-GATED CHANNEL, PUTATIVE
  fold change vs vehicle control: 0.99
Protein LMJF.21.0280 HY[…], CONSERVED
  fold change: 1.24
Protein LMJF.21.0540 LA RNA BINDING PROTEIN, PUTATIVE
  fold change: 1.21
Protein LMJF.21.1090 T-COMPLEX PROTEIN 1, DELTA SUBUNIT, PUTATIVE
  fold change: 1.03
Protein LMJF.21.1552 RNA HELICASE, PUTATIVE
  fold change vs vehicle control: 1.1
Protein LMJF.21.1710 […] OXIDASE SUBUNIT VI, PUTATIVE
  fold change: 1
Protein LMJF.21.1830 […] 5 SUBUNIT, PUTATIVE
  fold change: 1.17
Protein LMJF.22.0420 40S RIBOSOMAL PROTEIN S15, PUTATIVE
  fold change: 1.13
Protein LMJF.22.1360 FARNESYL PYR[…]
  fold change: 1.17
Protein LMJF.22.1450 CYCLOPHILIN 6, PUTATIVE
  fold change: 1.07
Protein LMJF.23.0040 PEROXIDOXIN
  fold change: 1.19
Protein LMJF.23.0200 ENDORI[…]-PSP (PB5), PUTATIVE
  fold change: 1.04
Protein LMJF.23.0560 KINESIN, PUTATIVE
  fold change: 0.99
Protein LMJF.25.1710 PYRUVATE DEHYDROGENASE E1 BETA SUBUNIT, PUTATIVE
  fold change: 0.86
Protein LMJF.26.0280 HYPOTHETICAL PROTEIN, CONSERVED
  fold change: 1.23
Protein LMJF.26.0830 […], PUTATIVE
  fold change: 1.08
Protein LMJF.27.0190 […] 7 SUBUNIT, PUTATIVE
  fold change: 1.07
Protein LMJF.27.0560 PROTEIN KINASE, PUTATIVE,CDC2-RELATED KINASE, PUTATIVE
  fold change: 1.11
Protein LMJF.27.0760 GTP-binding protein homologue
  fold change: 1.09
Protein LMJF.27.0930 ISOVALERYL-COA DEHYDROGENASE, PUTATIVE
  fold change: 1.19
Protein LMJF.27.1260 T-COMPLEX PROTEIN 1, BETA SUBUNIT, PUTATIVE
  fold change: 0.99
Protein LMJF.27.1300 HY[…], CONSERVED
  fold change: 1.02
Protein LMJF.27.1390 60S ACIDIC RIBOSOMAL SUBUNIT PROTEIN, PUTATIVE
  fold change: 1.18
Protein LMJF.27.2330 GTP BINDING PROTEIN, PUTATIVE
  fold change: 1.08
Protein LMJF.28.0960 40S RIBOSOMAL PROTEIN S14
  fold change: 1.19
Protein LMJF.28.0980 P27 PROTEIN, PUTATIVE
  fold change vs vehicle control: 1.05
Protein LMJF.28.2260 […] PROTEIN, PUTATIVE
  fold change: 1.11
Protein LMJF.28.2420 2-OXOGLUTARATE DEHYDROGENASE, E2 COMPONENT, DIHYDROLIPOAMIDE SUCCINYLTRANSFERASE, PUTATIVE
  fold change: 1.14
Protein LMJF.28.2430 VACUOLAR ATP SYNTHASE SUBUNIT B, PUTATIVE
  fold change: 0.88
Protein LMJF.28.2460 RIBOSOMAL PROTEIN S29, PUTATIVE
  fold change: 1.19
